In the assay the target is T1, PBX1, endogenous in A549 cells (human (endogenous in A549)) (UniProt P40424).
T1 sequence: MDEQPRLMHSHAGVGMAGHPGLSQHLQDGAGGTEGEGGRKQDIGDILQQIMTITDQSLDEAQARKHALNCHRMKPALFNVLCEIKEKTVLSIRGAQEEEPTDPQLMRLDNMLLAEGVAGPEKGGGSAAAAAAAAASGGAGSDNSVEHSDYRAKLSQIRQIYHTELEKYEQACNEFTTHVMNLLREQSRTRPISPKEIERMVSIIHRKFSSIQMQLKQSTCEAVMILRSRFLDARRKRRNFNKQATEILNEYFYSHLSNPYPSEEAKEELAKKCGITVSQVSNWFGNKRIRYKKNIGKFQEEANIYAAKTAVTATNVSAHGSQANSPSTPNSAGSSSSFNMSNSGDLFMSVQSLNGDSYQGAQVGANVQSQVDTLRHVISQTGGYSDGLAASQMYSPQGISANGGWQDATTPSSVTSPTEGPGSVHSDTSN
The assay is described as follows: proximity ligation; in situ PLA (Duolink) in fixed A549 cells expressing PREP1-GFP constructs; anti-PBX1 and anti-GFP antibodies; nuclear and cytoplasmic foci counted.

Results are given in words; binding and its absence hold for the method and conditions named. Binding seen in cells or lysates may run through a third protein. Some entries that bind do so weakly or less than the wild type. Where a sequence is shown, tags or fusion partners need not be part of it.

B1: PREP1-GFP wild-type (protein, UniProt P55347 1-436)
chain: MMATQTLSIDSYQDGQQMQVVTELKTEQDPNCSEPDAEGVSPPPVESQTPMDVDKQAIYRHPLFPLLALLFEKCEQSTQGSEGTTSASFDVDIENFVRKQEKEGKPFFCEDPETDNLMVKAIQVLRIHLLELEKVNELCKDFCSRYIACLKTKMNSETLLSGEPGSPYSPVQSQQIQSAITGTISPQGIVVPASALQQGNVAMATVAGGTVYQPVTVVTPQGQVVTQTLSPGTIRIQNSQLQLQLNQDLSILHQDDGSSKNKRGVLPKHATNVMRSWLFQHIGHPYPTEDEKKQIAAQTNLTLLQVNNWFINARRRILQPMLDSSCSETPKTKKKTAQNRPVQRFWPDSIASGVAQPPPSELTMSEGAVVTITTPVNMNVDSLQSLSSDGATLAVQQVMMAGQSEDESVDSTEEDAGALAPAHISGLVLENSDSLQ
With B1, the binding result is on record as “binds”.

Values taken from paper PMC7545097, “Mapping the native interaction surfaces of PREP1 with PBX1 by cross-linking mass-spectrometry and mutagenesis” (Scientific Reports, 2020).
